Measured values from publication PMC2726290, “Decoding of Methylated Histone H3 Tail by the Pygo-BCL9 Wnt Signaling Complex” (Molecular Cell, 2008).
No constants are given. Whether binding was seen depends on the method and setting. Some entries that bind do so weakly or less than the wild type.

Tests used:
[1] = molecular target: T1, hPygo1 PHD finger W366E (human) (UniProt Q9Y3Y4); assay: complex formation of PHD mutants with HD1; Figure S1D; data not shown
T1 sequence: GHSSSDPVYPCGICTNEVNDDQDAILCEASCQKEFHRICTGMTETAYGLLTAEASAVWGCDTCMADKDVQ

[2] = molecular target: T2, hPygo1 PHD finger A356E (human) (UniProt Q9Y3Y4); assay: as above
T2 sequence: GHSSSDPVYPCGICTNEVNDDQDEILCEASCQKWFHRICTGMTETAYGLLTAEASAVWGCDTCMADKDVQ

[3] = molecular target: T3, hPygo1 PHD finger V350E (human) (UniProt Q9Y3Y4); assay: as above
T3 sequence: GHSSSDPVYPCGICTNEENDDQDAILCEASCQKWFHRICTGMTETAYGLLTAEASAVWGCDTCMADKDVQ

[4] = molecular target: T4, hPygo1 PHD finger (amino acids 333-402), free (human) (UniProt Q9Y3Y4); assay: crystal structure; binary PHD-HD1 complexes (hPHD_W366F-HD1, WT1, WT2); vapor diffusion at 19°C; both purified
T4 sequence: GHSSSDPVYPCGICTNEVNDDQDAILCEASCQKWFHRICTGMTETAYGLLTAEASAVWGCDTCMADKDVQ

[5] = molecular target: T5, hPygo1 PHD finger W366F (human) (UniProt Q9Y3Y4); assay: as above
T5 sequence: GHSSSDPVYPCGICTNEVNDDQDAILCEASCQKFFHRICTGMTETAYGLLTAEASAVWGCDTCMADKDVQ

[6] = molecular target: T6, hPygo1 PHD finger (amino acids 340-402) (human) (UniProt Q9Y3Y4); assay: crystal structure; ternary complexes: 10 mg/ml hPHD(340-402)-HD1 mixed with 5x molar excess of H3K4me2 9-mer or H3R2me2aK4me2 18-mer peptide; both purified
T6 sequence: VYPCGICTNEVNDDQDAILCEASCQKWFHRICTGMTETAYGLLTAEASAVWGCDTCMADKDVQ

[7] = molecular target: T4, hPygo1 PHD finger (amino acids 333-402), free (human); assay: SEC; PHD and HD1 coexpressed in bacteria, complex purified and run on gel filtration (Figure S1); both purified
[8] = molecular target: T7, Drosophila Pygo PHD finger (amino acids 747-808), free (Drosophila) (UniProt Q9V9W8); assay: co-expression and co-purification; GST-PHD and MBP-HD1 coexpressed from a bicistronic vector in E. coli; complex purified; both purified
T7 sequence: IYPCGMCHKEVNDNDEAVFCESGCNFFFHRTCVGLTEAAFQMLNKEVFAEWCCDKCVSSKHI

Measured: binding

VYVFSTEMANKAAEAVLKGQVETIVSFHI (domain or fragment, UniProt O00512 177-205) [hBCL9 HD1 domain (amino acids 177-205)]
not listed: [8]
binds: all other assays above

YMQQQNHIFVFSTQLANKGAESVLSGQFQTIIAYH (domain or fragment, UniProt Q961D9 316-350) [Lgs HD1 domain (amino acids 316-350)]
binds: [8]
